Experimental data as given in PubChem BioAssay AID504834 (National Center for Advancing Translational Sciences (NCATS), 2011).
Hit rate of the full screen: of about 320,000 compounds, about 22,000 (6.9%) were called active. The inconclusive results got no clear call from the source; some entries with a clear call stand among them for comparison. Calls come from the whole dose curve; as a rule, active = well fitted inhibition curve with a large enough effect; inconclusive = small, poorly fitted or top-dose-only effect, or another doubt; inactive = no such curve, though single readings can be large or run the other way. A potency beside an inconclusive call is a rough fit, not a confirmed value.
% is set by controls: 0 for no effect and ±100 for the full control effect; potency is the fitted concentration of half-maximal effect.

Test: Primary qHTS for delayed death inhibitors of the malarial parasite plastid, 96 hour incubation
Settings: P. falciparum luciferase reporter growth; series mostly up to 28.7 µM; activity change, negative = inhibition: at the top concentration
Procedure, shortened: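 Erythrocytes infected with luciferase-expressing P. falciparum were dispensed at 2% hematocrit and 0.05% parasitemia (final), then incubated with compounds 96 hours at 37 C in 5% CO2. Luminescence after detection reagent addition reported growth.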
With `O=C(Cc1c(Cl)cccc1Cl)Nc1ccncc1` the Potency was inconclusive: 10.4 µM [inhibitor, single point].
In the case of `Cc1ccnc(N2CCC(C(=O)Nc3ccc(Oc4ccccc4)cc3)CC2)n1`, the activity change, negative = inhibition was inactive: 13.6% [at 5.75 µM].
In the case of `COc1cc2c(cc1OC)C(=O)N1[C@H]3c4ccccc4OC[C@@H]3[C@H](c3ccccc3)[C@]1(C)C(=O)N2`, the Potency was inconclusive: 18.5 µM [inhibitor, single point].
For `CCOc1nc(C#N)nc(N2CCCCC2)n1`, the Potency was inconclusive: 0.0828 µM [inhibitor, full curve, poor fit].
With `Cc1ccc2nc(NC(=O)c3ccc(N4C(=O)CCC4=O)cc3)sc2c1` the Potency was inconclusive: 18.5 µM [inhibitor, single point].
For `CCn1c2ccccc2c2cc(NS(=O)(=O)c3ccccc3C)ccc21`, the Potency was inconclusive: 18.5 µM [inhibitor, single point].
In the case of `CCC(C)NC(=O)C1CCN(CCCc2ccccc2)CC1` (stereo unspecified), the Potency was inconclusive: 11.7 µM [inhibitor, partial curve, poor fit].
With `Cc1cccc(CN2C[C@]34CC[C@@H](C[C@@H]3S2(=O)=O)O4)c1` the “activity change, negative = inhibition” value was inactive: -0.875%.
In the case of `Cc1cccc(NC(=O)CCC(=O)N/N=C/c2cc([N+](=O)[O-])ccc2O)c1`, the Potency was inconclusive: 10.4 µM [inhibitor, partial curve].
In the case of `FC(F)(F)c1ccccc1Nc1nccs1`, the “activity change, negative = inhibition” value was inactive: 0%.
For `COc1cc(C(=O)Nc2ccc(C)cc2)c(-n2cnnn2)cc1OC`, the Potency was inconclusive: 14.7 µM [inhibitor, single point].
In the case of `O=C1C2CCCN2C(c2ccc(Cl)cc2)N1c1nccs1` (stereo unspecified), the Potency was inconclusive: 18.5 µM [inhibitor, single point].
With `COC(=O)C1CN(C(=O)C(C)Oc2ccc(F)cc2)c2ccccc2O1` (stereo unspecified) the Potency was inconclusive: 3.7 µM [inhibitor, partial curve].
With `COc1cc(/C=N/NC(=O)c2ccc(NC(=O)C3CC3)cc2)ccc1OC(C)=O` the Potency was inconclusive: 9.28 µM [inhibitor, single point].
For `Cc1onc(-c2c(F)cccc2Cl)c1C(=O)N1C=CC(C(F)(F)Cl)=NCC1`, the “activity change, negative = inhibition” value was inactive: -0.081%.
For `COc1ccc(NC(=O)CCCn2c(=O)c3sccc3n(Cc3cccc(C)c3)c2=O)cc1`, the Potency was inconclusive: 10.4 µM [inhibitor, single point].
In the case of `C#CCNC(=O)C1=C[C@@H](c2coc3ccccc3c2=O)[C@H](CCCO)[C@@H](OCC)O1`, the Potency was inconclusive: 10.4 µM [inhibitor, partial curve].
In the case of `CN(C)S(=O)(=O)c1cccc(NC(=S)NCc2ccc3c(c2)OCO3)c1`, the Potency was inconclusive: 1.65 µM [inhibitor, full curve, poor fit].
With `CC(C)c1ccccc1N1CC(C(=O)O)CC1=O` (stereo unspecified) the Potency was inconclusive: 18.5 µM [inhibitor, single point].
In the case of `CC1(C)CC(/C=C/c2ccccc2)=Nc2ccccc2N1`, the Potency was inconclusive: 0.117 µM [inhibitor, full curve, poor fit].
In the case of `O=C(Nc1nc2ccccc2[nH]1)c1cccc(S(=O)(=O)N2CCOCC2)c1`, the “activity change, negative = inhibition” value was inactive: 36.6%.
With `O=C1C2C3C=CC(C3)C2C(=O)N1c1nc2ccccc2s1` (stereo unspecified) the Potency was active: 8.28 µM.
With `CCOc1ccc(C2N(c3ccc(F)cc3)C(=O)C3CCCN32)cc1` (stereo unspecified) the Potency was active: 4.15 µM.
For `O=C(Nc1ccccc1)N1CCN(C(=O)Nc2ccccc2)CC1`, the “activity change, negative = inhibition” value was inactive: -1.36%.
For `C[n+]1cc(C(=O)N2CCCCC2)ccc1/C=C/c1c[nH]c2ccccc12`, the Potency was active: 0.415 µM.
For `CCN(CC)S(=O)(=O)c1cccc(NC(=O)COC(=O)/C=C/c2ccco2)c1`, the “activity change, negative = inhibition” value was inactive: 56.2%.
For `CCN(C(=S)NCCOC)c1cccc2ccccc12`, the activity change, negative = inhibition was inactive: 41.7% [at 5.75 µM].
For `O=C(Cn1cnc2ccccc2c1=O)NCCC(=O)Nc1ccccc1C(F)(F)F`, the Potency was inconclusive: 8.28 µM [inhibitor, partial curve].
With `COc1cc(OC)c2ccc(=O)oc2c1C(CCN1CCCCC1)c1ccc(N(C)C)cc1` (stereo unspecified) the Potency was inconclusive: 18.5 µM [inhibitor, single point].
With `O=C(CCCc1ccccc1)N=C1SC2CS(=O)(=O)CC2N1c1ccccc1F` (stereo unspecified) the “activity change, negative = inhibition” value was inactive: 22.1%.
For `Cc1oc2ccc(O)c(CN3CCOCC3)c2c1C(=O)c1ccc(Cl)cc1`, the Potency was inconclusive: 13.1 µM [inhibitor, partial curve, poor fit].
With `Cc1ccc(SCCNC(=O)/C=C/c2ccccc2Cl)cc1` the Potency was inconclusive: 20.8 µM [inhibitor, partial curve, poor fit].
In the case of `C[C@@H](NC(=O)OC(C)(C)C)c1nnc(S(=O)(=O)Cc2ccccc2)o1`, the “activity change, negative = inhibition” value was inactive: 19.6%.
With `O=C(CSc1nc2ccccc2o1)NCc1n[nH]c(=O)c2ccccc12` the Potency was inconclusive: 10.4 µM [inhibitor, single point].
For `C=CCNC(=S)N(Cc1ccccc1)Cc1ccccc1`, the Potency was inconclusive: 0.0029 µM [inhibitor, full curve, poor fit].
For `COc1ccc(CCNCC(O)COc2cccc(C(C)=O)c2)cc1OC` (stereo unspecified), the “activity change, negative = inhibition” value was inactive: -26.5%.
For `COc1cc(C(c2nnnn2C2CCCC2)N2CCN(C)CC2)cc(OC)c1OC` (stereo unspecified), the “activity change, negative = inhibition” value was inactive: 61.5%.
In the case of `CCOc1ccccc1NC(=O)/C=C/C(N)=O`, the “activity change, negative = inhibition” value was inactive: 23.9%.
With `O=C(COc1ccc(Cl)cc1Cl)OCn1nnc2ccccc2c1=O` the “activity change, negative = inhibition” value was inactive: 23.9%.
For `CC(C)(C)NC(=O)CSc1ccc(S(=O)(=O)N2CCOCC2)cn1`, the Potency was inconclusive: 13.1 µM [inhibitor, single point].
For `CCN(C(=O)CCC(=O)N(CC)c1ccccc1)c1ccccc1`, the Potency was inconclusive: 4.65 µM [inhibitor, partial curve, poor fit].
For `O=C(Nc1ccc(Cl)cc1)N1CCCN(c2ccc(C(F)(F)F)cc2[N+](=O)[O-])CC1`, the Potency was inconclusive: 11.7 µM [inhibitor, single point].
For `Cc1ccccc1/C(N)=N/OC(=O)N1c2ccccc2Sc2ccccc21`, the Potency was active: 10.4 µM.
For `COc1ccccc1CNC(=O)c1ccc(-c2ccccc2Cl)o1`, the Potency was active: 10.4 µM.
With `CSc1nc(Oc2cccc(C(F)(F)F)c2)cc(C(F)(F)F)n1` the Potency was inconclusive: 3.29 µM [inhibitor, single point].
With `Cc1ccc(S(=O)(=O)Oc2ccccc2/C=N/NC(N)=S)cc1` the Potency was inconclusive: 9.28 µM [inhibitor, single point].
